This is an account of results in publication PMC10850816.

No constants are given. Whether binding was seen depends on the method and setting. In cells and extracts the contact can be indirect. A result given as binding can be weak or reduced; the word gives no strength.

The target of this assay is purified STAT5 protein. As to the kind of experiment: pull-down; purified STAT5 incubated with in vitro translated FERM-JAK2 or JAK2-V617F for 3 h; beads washed; bound JAK2 detected by anti-JAK2 immunoblot (Fig. 3C); only the target purified. (In general: In western blotting, separated proteins are transferred to a membrane and probed.)

B1: FERM-JAK2, in vitro translated (protein, UniProt O60674 1-77; O60674 814-1132)
chain: MGMACLTMTEMEGTSTSSIYQNGDISGNANSMKQIDPVLQVYLYHSLGKSEADYLTFPSGEYVAEEICIAASKACGIELLTENDMLPNMRIGALGFSGAFEDRDPTQFEERHLKFLQQLGKGNFGSVEMCRYDPLQDNTGEVVAVKKLQHSTEEHLRDFEREIEILKSLQHDNIVKYKGVCYSAGRRNLKLIMEYLPYGSLRDYLQKHKERIDHIKLLQYTSQICKGMEYLGTKRYIHRDLATRNILVENENRVKIGDFGLTKVLPQDKEYYKVKEPGESPIFWYAPESLTESKFSVASDVWSFGVVLYELFTYIEKSKSPPAEFMRMIGNDKQGQMIVFHLIELLKNNGRLPRPDGCPDEIYMIMTECWNNNVNQRPSFRDLALRVDQIRDNMAG
For the molecule B1, the binding entry is “binds”.
